The other results are listed elsewhere or left out. These are further read-outs of the screen, such as a control signal, another cell line or another target. No call is given for them. Most of these compounds were active or inconclusive in the main read-out, so they are no random draw. Potencies come from curve fits of mixed quality, noted in brackets.
Assay: qHTS Assay for Lipid Storage Modulators in Drosophila S3 Cells;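 as to cell number change: cells counted by Cell Tracker Red CMTPX staining in the red channel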
Settings: BODIPY lipid droplet fluorescence, 18-24 h; for cell number change: measured here: cell count max response, cells fed with added oleic acid
Method in brief: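 Laser-scanning cytometry quantifies lipid droplet accumulation (500–530 nm total intensity; droplet/cell object ratio) in oleic acid-fed (400 uM added) Drosophila S3 cells treated with a concentration series. 20 uM Triacsin C defined 100% inhibition.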

[1] = measured here: lipid fluorescence (Fed channel) AC50, cells fed with added oleic acid
[2] = measured here: cell number channel AC50, cells fed with added oleic acid

Row | SMILES | cell number change [%] | AC50 [1] | AC50 [2]
1 | c1ccc(Cn2c(CSc3nnnn3-c3ccccc3)nc3ccccc32)cc1 | -3.24 | – | –
2 | CC(=O)c1cccc(S(=O)(=O)NC2CCSc3ccccc32)c1 (configuration not stated) | 31.9 | 18.4 µM [rising, single point] | –
3 | COc1ccccc1NC(=O)C(C)OC(=O)CCSc1ccc(F)cc1 (configuration not stated) | 123 | – | 29.1 µM [rising, single point]
4 | O=C(CSc1nnc(-c2ccccn2)n1Cc1ccco1)c1ccccc1 | -22.1 | 29.1 µM [rising, single point] | –
5 | O=C(CCN1CCN(c2ccccc2)CC1)N/N=C/c1ccc([N+](=O)[O-])o1 | -1.37 | – | –
6 | Cc1ccc(S(=O)(=O)N(CC(=O)NCc2ccco2)c2ccccc2C)cc1 | -37.2 | – | 9.2 µM [falling, partial curve, poor fit]
7 | CS(=O)(=O)c1ccc(-c2nnc(NC(=O)c3ccc(S(=O)(=O)N4CCCC4)cc3)o2)cc1 | 15.2 | 0.326 µM [falling, full curve, poor fit] | –
8 | CSCC[C@H](NC(=O)C(C)(C)Oc1ccc(Cl)cc1)c1nc2ccccc2[nH]1 | -16.2 | 2.31 µM [falling, full curve, poor fit] | 1.46 µM [rising, partial curve]
9 | CCCCNC(=O)C(c1ccc(-c2ccccc2)cc1)N(CCN1CCOCC1)C(=O)CCCCCN1C(=O)NC(c2ccc([N+](=O)[O-])cc2)C(C(=O)OCc2ccccc2)=C1C (configuration not stated) | 13.5 | 7.31 µM [rising, partial curve] | –
10 | O=C1C(Cc2ccc(Br)cc2)SC(=Nc2ccccc2)N1c1ccccc1 (configuration not stated) | 15.7 | 16.4 µM [rising, single point] | –
11 | CC(CN1CCCCC1)C(=O)NNC(=O)C12CC3CC(CC(C3)C1)C2 (configuration not stated) | -6.65 | – | –
12 | COc1ccc(-n2nc(C(=O)NCC(=O)NCc3ccccc3OC)c3ccccc3c2=O)c(OC)c1 | -0.9 | 7.31 µM [rising, single point] | –
13 | O=C(/C=C/c1cccnc1)c1ccccc1O | 13.1 | 1.03 µM [rising, full curve, poor fit] | –
14 | CCCn1c(CC)nc([N+](=O)[O-])c1Sc1ccc(F)cc1 | 15.5 | 18.4 µM [rising, single point] | –
15 | CCCCn1nc2cc(C(=O)NCC34CC5CC(CC(C5)C3)C4)ccc2c1OCC | -33.2 | 16.4 µM [falling, partial curve] | 10.3 µM [falling, partial curve]
16 | Cc1ccccc1NS(=O)(=O)c1ccc(C(=O)N2CCCC(C(F)(F)F)C2)cc1 (configuration not stated) | -20.4 | – | –
17 | CCCCCCCc1n[nH]c(=S)n1Cc1ccccc1 | -34.3 | 25.9 µM [falling, single point] | 20.6 µM [falling, single point]
18 | CCN(CC)S(=O)(=O)c1ccc(C)c(NC(=O)CNCc2ccccc2OC)c1 | 15.3 | – | –
19 | COc1ccc(CNC(=O)Cn2ncn3cccc3c2=O)cc1 | -35.1 | 0.00517 µM [falling, full curve, poor fit] | 18.4 µM [falling, single point]
20 | Cc1ccc(NC(=O)Cn2nc(C(F)(F)F)c3c2CCC3)cc1 | 29.5 | 3.26 µM [rising, single point] | 2.31 µM [rising, single point]

Five structures from above, sorted by length of the SMILES, ascending:
Row | SMILES | cell number change [%] | AC50 [1] | AC50 [2]
19 | COc1ccc(CNC(=O)Cn2ncn3cccc3c2=O)cc1 | -35.1 | 0.00517 µM [falling, full curve, poor fit] | 18.4 µM [falling, single point]
20 | Cc1ccc(NC(=O)Cn2nc(C(F)(F)F)c3c2CCC3)cc1 | 29.5 | 3.26 µM [rising, single point] | 2.31 µM [rising, single point]
4 | O=C(CSc1nnc(-c2ccccn2)n1Cc1ccco1)c1ccccc1 | -22.1 | 29.1 µM [rising, single point] | –
1 | c1ccc(Cn2c(CSc3nnnn3-c3ccccc3)nc3ccccc32)cc1 | -3.24 | – | –
5 | O=C(CCN1CCN(c2ccccc2)CC1)N/N=C/c1ccc([N+](=O)[O-])o1 | -1.37 | – | –

(cont.)

Row | SMILES | cell number change [%] | AC50 [1] | AC50 [2]
21 | CCOc1cc(C=O)cc(Br)c1OCC(N)=O | -32.9 | – | 6.51 µM [falling, single point]
22 | Cc1ccc(C(=O)Nc2cccc(N3C(=O)C4CCC(C)CC4C3=O)c2)cc1 (configuration not stated) | -28.2 | 29.1 µM [falling, single point] | –
23 | O=C1OCC/C1=C\c1ccc2c(c1)OCO2 | -53.8 | 25.9 µM [falling, partial curve, poor fit] | 23.1 µM [falling, partial curve, poor fit]
24 | COc1ccc(C(=O)N/C(=C\c2cn(S(=O)(=O)N(C)C)c3ccccc23)C(=O)NCCCn2ccnc2)cc1 | 15.8 | 0.58 µM [falling, single point] | 2.31 µM [falling, partial curve]
25 | O=C(Nc1cccc(C(=O)N2CCCCC2)c1)c1ccc(Cl)cc1 | 24.3 | 6.51 µM [rising, single point] | –
26 | CN(C)c1ccc(N=C/C=C2/N(C)c3ccccc3C2(C)C)cc1 | -93.5 | 9.2 µM [falling, partial curve] | 5.17 µM [falling, single point]
27 | Cc1ccc(CNC(=O)CNS(=O)(=O)c2ccc3c(c2)C(C)(C)C(=O)N3C)cc1 | -28.2 | 6.51 µM [falling, full curve] | –
28 | Cc1ccc(N(CC(=O)Nc2ccc(C)cc2C)S(=O)(=O)N2CCCC2)cc1 | – | 0.082 µM [rising, full curve, poor fit] | 1.3 µM [rising, partial curve]
29 | COc1cc(C(=O)Nc2c(C)cc(C)cc2C)c([N+](=O)[O-])cc1OC | -66.7 | 4.11 µM [falling, full curve, poor fit] | 0.58 µM [falling, full curve, poor fit]
30 | Cc1c2ccccc2cc(Cc2ccccc2)[n+]1C | -12.4 | 0.411 µM [rising, single point] | –
31 | O=[N+]([O-])c1ccc(Nc2ccc(F)cc2)nc1 | 40.6 | 10.3 µM [falling, partial curve] | 29.1 µM [rising, single point]
32 | COc1ccc(C(=O)N/N=C/c2ccc(OC)c(CN3CCc4cc(OC)c(OC)cc4C3C)c2)cc1 (configuration not stated) | 2.88 | 18.4 µM [rising, single point] | –
33 | CC(C)(C)N1CC(C(=O)Nc2cccc(Cl)c2Cl)CC1=O (configuration not stated) | -0.313 | – | –
34 | CC(C)Oc1ccc(C(=O)OC(C)C(=O)NC2CCCCC2C)cc1 (configuration not stated) | -11.5 | 20.6 µM [rising, single point] | –
35 | Cn1nc(C(=O)Nc2ccc(S(=O)(=O)N3CCOCC3)cc2)c2ccccc2c1=O | 137 | 5.8 µM [falling, single point] | –
36 | CCOC(=O)N1CCN(C(=O)CN(C2CCCCC2)S(C)(=O)=O)CC1 | -28.2 | – | –
37 | Cc1cc(Cl)ccc1OCC(=O)Nc1ccccc1NS(=O)(=O)c1cccs1 | 17.6 | – | –
38 | Cc1ccccc1NC(=O)NCC1CCN(Cc2cccc(Cl)c2)CC1 | 18.7 | 6.51 µM [rising, partial curve, poor fit] | –
39 | CSc1nncc(/C(C)=N\Nc2ccccc2C)n1 | 72.8 | – | 0.461 µM [rising, partial curve]
40 | Cn1cc(-c2cccc(C(F)(F)F)c2)cc(C#N)c1=O | 6.31 | 23.1 µM [falling, single point] | –

Row | SMILES | cell number change [%] | AC50 [1] | AC50 [2]
41 | Cc1ccc(NC(=S)N(CCN2CCCCC2)Cc2ccco2)cc1Cl | 15.9 | – | –
42 | Cc1cccc(N/N=C(\C(N)=O)C2=NC(C)(C)Cc3ccccc32)c1 | -71.4 | 16.4 µM [falling, single point] | 29.1 µM [falling, single point]
43 | CCOC(=O)C1=C(N)Oc2cc(O)ccc2C1c1ccc([N+](=O)[O-])cc1 (configuration not stated) | -32.3 | – | 18.4 µM [falling, partial curve, poor fit]
44 | COc1cccc(OC)c1C(=O)Nc1cccc(-n2cnnn2)c1 | -9.54 | 29.1 µM [falling, single point] | –
45 | Cc1cccc(C(=O)NN/C=C/C(=O)c2ccccc2)c1 | -8.14 | 16.4 µM [falling, partial curve] | –
46 | CCN(CC)CC(=O)Nc1c(C)cc(C(C)(C)C)cc1C | -74.9 | 29.1 µM [falling, partial curve] | 2.91 µM [falling, full curve]
47 | Cc1nn(-c2ccccc2)c(N2CCCC2)c1/C=N/NC(=O)c1cc(-c2ccccn2)nc2ccccc12 | -41.4 | 16.4 µM [falling, partial curve] | 25.9 µM [falling, single point]
48 | N#CCOC(=O)C1c2ccccc2Oc2ccccc21 | -3.6 | – | –
49 | C=CCn1c(SCC(=O)N2CC(=O)Nc3ccccc32)nc2scc(-c3cccs3)c2c1=O | -5.29 | 5.17 µM [rising, partial curve] | –
50 | Cc1cc(Cl)c(C)c(S(=O)(=O)N2CCN(C(=O)C3CCCO3)CC2)c1Cl (configuration not stated) | 9.95 | 29.1 µM [falling, single point] | –
51 | Cc1cccc(N(CC(=O)NCCSCc2ccco2)S(=O)(=O)c2ccccc2)c1 | -24.5 | 1.3 µM [falling, full curve, poor fit] | –
52 | COc1ccc(N(CC(O)Cn2cnc3ccccc32)S(=O)(=O)c2ccc(C)cc2)cc1 (configuration not stated) | 70.6 | – | 29.1 µM [rising, single point]
53 | CC(C)(C)C(=O)CSc1ccc(S(=O)(=O)N2CCCC2)cn1 | 4.51 | – | –
54 | O=C(CSc1nnc2c(n1)[nH]c1ccc(F)cc12)N1CCOCC1 | – | 4.11 µM [falling, partial curve] | –
55 | NC(=O)c1nsc(C(=O)N(c2ccc3c(c2)OCCO3)C(C(=O)NCC2CCCO2)c2ccc(F)cc2)c1N (configuration not stated) | 20.3 | 2.91 µM [rising, single point] | –
56 | CC(C)(C)NS(=O)(=O)c1ccc(C(=O)Nc2ccc3c(c2)OCO3)cc1 | 2.1 | 29.1 µM [rising, single point] | –
57 | CCOc1ccccc1NC(=S)NC(=O)c1ccco1 | 9.67 | 29.1 µM [rising, single point] | –
58 | CCOC(=O)C1CCCN(CCSc2ccc(C)cc2)C1 (configuration not stated) | -13.5 | 18.4 µM [rising, single point] | –
